The nature of the series: general procedure: Fmoc solid-phase peptide synthesis. To be noted: lipidation step.

Strings that start with PEPTIDE1 are HELM notation: dots part the residues, brackets hold end groups and non-standard residues.

Turning to “PEPTIDE1{[Dend2x12].G.D.G.E.E.G.A.S.R.H.E.Y.E.G.K.E.A.E}$$$$V2.0”, the step yield is reported as 48% yield.
As to “PEPTIDE1{[Dend2x12].G.D.G.R.E.G.A.S.E.H.E.Y.E.G.K.E.A.E}$$$$V2.0”, the step yield is 50% yield.
Take “PEPTIDE1{[Dend4x7].G.D.G.E.E.G.A.S.R.G.E.Y.E.G.K.E.A.E}$$$$V2.0”: the step yield turned out to be 51%.
Then “PEPTIDE1{[Dend4x7].G.D.G.E.E.G.A.S.R.H.E.Y.E.G.K.E.A.E}$$$$V2.0”, with 26% yield.
Then “PEPTIDE1{[Dend4x7].G.D.G.R.E.G.A.S.E.H.E.Y.E.G.K.E.A.E}$$$$V2.0”, with 40% yield.

The values above are taken from PMC8397319 (2021).
